For this experiment, the target named is T1, SPRTN-Strep-Strep-His (SSH) (human) (UniProt Q9H040).
T1 sequence: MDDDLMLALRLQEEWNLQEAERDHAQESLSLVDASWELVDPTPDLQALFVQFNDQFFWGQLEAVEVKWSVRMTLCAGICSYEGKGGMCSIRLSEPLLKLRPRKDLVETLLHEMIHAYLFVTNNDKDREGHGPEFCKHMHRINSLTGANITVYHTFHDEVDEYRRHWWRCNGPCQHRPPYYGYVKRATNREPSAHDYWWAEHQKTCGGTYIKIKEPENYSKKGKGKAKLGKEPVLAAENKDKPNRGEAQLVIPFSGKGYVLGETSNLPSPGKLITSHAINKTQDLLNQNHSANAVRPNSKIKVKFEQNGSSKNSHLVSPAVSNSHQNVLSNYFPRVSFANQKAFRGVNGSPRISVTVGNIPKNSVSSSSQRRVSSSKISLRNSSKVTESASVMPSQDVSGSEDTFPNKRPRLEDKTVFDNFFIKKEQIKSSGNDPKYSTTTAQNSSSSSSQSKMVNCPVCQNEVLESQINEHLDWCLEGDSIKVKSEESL
The experiment can be described thus: co-IP; SPRTN-SSH isolated from total HEK293 cell extracts over Streptactin sepharose under high salt and detergent conditions; partners detected by blot.

These are yes or no findings as the source states them, for the method shown. Binding seen in cells or lysates may run through a third protein. A result given as binding can be weak or reduced; the word gives no strength. Sequences can lack the tags named with a protein.

For “DNA polymerase δ (human (endogenous in HEK293))”, the binding entry is listed as “binds”.

The record behind these values is article PMC5128727, “Metalloprotease SPRTN/DVC1 Orchestrates Replication-Coupled DNA-Protein Crosslink Repair”.
